Where a chain is given by its changes, count along the chain named. Results are given in words; binding and its absence hold for the method and conditions named.
B1: anti-TLR3 monoclonal antibody 29H3 (antibody, V domains shown)
VH: DVQLQESGPDLVKPSQSLSLTCTVTGYSITSGYSWHWIRQFLGNKLEWMGYIHYSGITNYNPSLRSRISFTRDTSKNQFFLQLNSVTTEDTATYYCARDGYYGMDYWGQGTSVTVS
VL: DIVMTQSQKFMSTSVGDRVSITCKASQNVRTSVAWYQQKPGQSPKALIYLASNRHTGVPDRFTGSGSGTDFTLTVSNIQSEDLADYFCLQHWNYPYTFGGGTKLEIK
notes: also called 29H3.7; CNCM I-4187
B2: anti-TLR3 monoclonal antibody 23C8 (antibody, V domains shown)
VH: EVQLQQSGPELVKPGASVKISCKASGYSFTGYFMHWVKQSHVKSLEWIGRINPYNGATSYNQNFKDKASLTVDKSSSTSYMELHSLTSEDSAVYYCVRDDGGNYPFDYWGQGTTLTVS
VL: DIQMTQSPASLSASVGETVTITCRASENIYSYLAWYQQKQGKSPQLLVYYAKTLAEGVPSRFSGSGTGTQFSLKINSLQPEDFGSYYCQHHYGTPYTFGGGTKLEIK
B3: anti-TLR3 monoclonal antibody 28F11 (antibody, V domains shown)
VH: EVQLQQSGPELVKPGASVKISCKASGYSFTGYYIHWVKQSHVKSLEWIGRINPYYGATSYNQNFKDKANLTVDKSSSTAYMELHSLTSDDSAVYYCARSTKLGYLDYWGQGTTLTVS
VL: B2 VL with Y32N, V48I, Y50N, T67S, F71Y, S72F, Y96F

Sequences of proteins named here, by UniProt entry; tags and fusion partners are left off. Residues count along the entry.
UniProt O00206, residues 24-631: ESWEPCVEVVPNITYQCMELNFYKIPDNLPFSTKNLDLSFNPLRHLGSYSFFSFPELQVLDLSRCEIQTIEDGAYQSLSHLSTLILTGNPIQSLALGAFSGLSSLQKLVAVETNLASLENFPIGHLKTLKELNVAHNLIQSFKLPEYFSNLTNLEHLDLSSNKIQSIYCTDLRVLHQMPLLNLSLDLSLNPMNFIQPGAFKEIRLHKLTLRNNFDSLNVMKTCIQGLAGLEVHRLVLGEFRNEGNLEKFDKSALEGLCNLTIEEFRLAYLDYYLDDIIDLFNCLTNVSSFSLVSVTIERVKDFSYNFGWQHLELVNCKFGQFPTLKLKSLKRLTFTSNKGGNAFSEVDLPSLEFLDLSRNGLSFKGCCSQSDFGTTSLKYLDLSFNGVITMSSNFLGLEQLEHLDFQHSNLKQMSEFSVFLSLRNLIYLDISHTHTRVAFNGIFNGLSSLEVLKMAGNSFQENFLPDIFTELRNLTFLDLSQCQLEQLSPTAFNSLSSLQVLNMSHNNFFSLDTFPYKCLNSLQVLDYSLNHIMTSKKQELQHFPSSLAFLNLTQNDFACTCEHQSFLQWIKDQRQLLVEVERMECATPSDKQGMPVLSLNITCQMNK

Target: His-tagged rec TLR4 protein (R&D systems, #3146-TR-050) (UniProt O00206)
Experiment: condition: ratio above 10 for DO obtained in TLR3 ELISA to DO obtained in TLR4 ELISA; ELISA, His-tagged rec TLR4 on Ni-NTA plates, hybridoma supernatant

Binder | binding
B1 | no binding
B2 | no binding
B3 | no binding

— patent US20120034232A1 (INNATE PHARMA, published 2012)
